Values from PubChem BioAssay AID1259405 (NCATS, 2018).
The deposit covers about 50,000 reagents; shown is a part drawn at random. About 4,000 of all reagents (8%) were called active. 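Mouse siRNA library applied to hamster cells; one well for each siRNA.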 Reagents against one gene are numbered here.

- Assay: 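Knock-downs that lift recombinant protein yield in hamster ovary cells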 (primary screen)
- Cell system: Chinese hamster CHO-K1 ovary cells with stable secreted eGFP expression
- Knock-down reagent: single siRNA against mouse genes, 0.8 pmol siRNA per well (2 µl of 400 nM stock)
- Time to read-out: 3 days
- Read-out: 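Per-well intracellular GFP measured by laser scanning cytometry, plus viability from ATP luminescence, each relative to plate median of non-targeting control wells, in %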
- Reading the numbers: GFP, % of control: higher = more GFP per well, higher productivity; viability (ATP), % of control: higher = more viable cells (more ATP)
- Active means: 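a knock-down is called active if GFP reaches 120% or more of non-targeting control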

gene symbol | reagent | GFP, % of control | viability (ATP), % of control | Call
Gpatch11 | 1 | 59.1 | 47.8 | inactive
Gpatch11 | 2 | 98.2 | 76.9 | inactive
Gpatch11 | 3 | 69.1 | 55.5 | inactive
Camk1g | 1 | 86 | 87.1 | inactive
Smad4 | 1 | 76.7 | 77.4 | inactive
Smad4 | 2 | 88.7 | 77.5 | inactive
Smad4 | 3 | 65.1 | 93.5 | inactive
Adcy10 | 1 | 62.4 | 113 | inactive
Adcy10 | 2 | 124 | 70.8 | active
Mtch1 | 1 | 107 | 91 | inactive
Mtch1 | 2 | 108 | 64.1 | inactive
Mtch1 | 3 | 40.9 | 43.8 | inactive
Pop1 | 1 | 112 | 105 | inactive
Pop1 | 2 | 79.5 | 72.3 | inactive
Pop1 | 3 | 92.3 | 90.7 | inactive
Galnt5 | 1 | 55 | 107 | inactive
Galnt5 | 2 | 74.6 | 74.7 | inactive
Galnt5 | 3 | 70.4 | 108 | inactive
Tdp2 | 1 | 83.8 | 91.1 | inactive
Tdp2 | 2 | 49.6 | 62.9 | inactive
Tdp2 | 3 | 78.7 | 82.4 | inactive
Bpgm | 1 | 79.3 | 112 | inactive
Bpgm | 2 | 54.8 | 69.4 | inactive
Bpgm | 3 | 88.1 | 86 | inactive
Neil2 | 1 | 83.5 | 101 | inactive
Neil2 | 2 | 78.6 | 78.8 | inactive
Neil2 | 3 | 63.4 | 69.1 | inactive
Kcnmb2 | 1 | 60.2 | 97 | inactive
Kcnmb2 | 2 | 87.2 | 79.9 | inactive
Kcnmb2 | 3 | 75.5 | 27.9 | inactive
Hmga2 | 1 | 73.9 | 62.9 | inactive
Hmga2 | 2 | 54.3 | 61.8 | inactive
Hmga2 | 3 | 73.1 | 55.6 | inactive
Arsg | 1 | 97.1 | 80.2 | inactive
Arsg | 2 | 49 | 57.4 | inactive
Arsg | 3 | 44.6 | 46.5 | inactive
Tgfb3 | 1 | 65 | 83.5 | inactive
Tgfb3 | 2 | 110 | 68.6 | inactive
Tgfb3 | 3 | 41.2 | 47.9 | inactive
Krtap9-3 | 1 | 70.2 | 57.9 | inactive
Krtap9-3 | 2 | 83.6 | 93.2 | inactive
Krtap9-3 | 3 | 80.2 | 43.1 | inactive
Map6 | 1 | 115 | 67.4 | inactive
Map6 | 2 | 28.5 | 22.9 | inactive
Map6 | 3 | 75.9 | 52.4 | inactive
Ryk | 1 | 59.2 | 63.9 | inactive
Ryk | 2 | 53.3 | 97.6 | inactive
Ryk | 3 | 71.6 | 61.8 | inactive
Ctsz | 1 | 124 | 86 | active
Ctsz | 2 | 78.5 | 49.1 | inactive
Ctsz | 3 | 86.9 | 68.6 | inactive

Just “GFP, % of control” (11 entries from above):
Tdp2 #3: 78.7
Bpgm #1: 79.3
Bpgm #2: 54.8
Bpgm #3: 88.1
Neil2 #1: 83.5
Neil2 #2: 78.6
Neil2 #3: 63.4
Kcnmb2 #1: 60.2
Kcnmb2 #2: 87.2
Kcnmb2 #3: 75.5
Hmga2 #1: 73.9

The list goes on:
gene symbol | reagent | GFP, % of control | viability (ATP), % of control | Call
Nmbr | 1 | 73.3 | 56.6 | inactive
Nmbr | 2 | 113 | 79.4 | inactive
Nmbr | 3 | 66.2 | 83.5 | inactive
Lta | 1 | 205 | 124 | active
Lta | 2 | 107 | 82.1 | inactive
Procr | 1 | 121 | 82.5 | active
Procr | 2 | 70.1 | 66.2 | inactive
Procr | 3 | 44.1 | 43 | inactive
Mprip | 1 | 119 | 104 | inactive
Mprip | 2 | 66.9 | 90.9 | inactive
Prkacb | 1 | 60.7 | 45 | inactive
Prkacb | 2 | 40.4 | 31 | inactive
Prkacb | 3 | 87.8 | 102 | inactive
Tbc1d19 | 1 | 115 | 77.6 | inactive
Tbc1d19 | 2 | 74.1 | 49.5 | inactive
Tbc1d19 | 3 | 67.2 | 63.6 | inactive
C230012O17Rik | 1 | 80.7 | 42.2 | inactive
C230012O17Rik | 2 | 113 | 105 | inactive
C230012O17Rik | 3 | 124 | 130 | active
Or5p62 | 1 | 131 | 69.6 | active
Or5p62 | 2 | 81.6 | 74 | inactive
Or5p62 | 3 | 72.4 | 68.1 | inactive
Selenoh | 1 | 54.1 | 58.3 | inactive
Selenoh | 2 | 54.3 | 67.6 | inactive
Selenoh | 3 | 65.4 | 70.5 | inactive
Fstl4 | 1 | 83 | 71 | inactive
Fstl4 | 2 | 84 | 67.2 | inactive
Fstl4 | 3 | 72.5 | 61.2 | inactive
Wdr53 | 1 | 37.9 | 32.1 | inactive
Wdr53 | 2 | 87.6 | 80.9 | inactive
Wdr53 | 3 | 64.1 | 79.3 | inactive
Zscan29 | 1 | 68.4 | 69.2 | inactive
Zscan29 | 2 | 93.6 | 49.3 | inactive
Zscan29 | 3 | 94 | 105 | inactive
